Assay results published in article PMC9938007.
Results are given in words; binding and its absence hold for the method and conditions named. In cells and extracts the contact can be indirect. Binding can be weak; no strength is given.

How the values were obtained:
[1] = target: T1, full-length AMP deaminase 3 (AMPD3), rat, 90 kDa (rat (endogenous in NRCMs, H9c2 cells and rat heart)) (UniProt O09178); test: co-IP; anti-AMPD3 immunoprecipitation of NRCM lysate (500 μg), rabbit control IgG as control; IP buffer 150 mM NaCl, 10 mM Tris-HCl pH 7.4, 1% Triton X-100, 0.5% NP-40, 4°C overnight; immunoblotting
T1 sequence: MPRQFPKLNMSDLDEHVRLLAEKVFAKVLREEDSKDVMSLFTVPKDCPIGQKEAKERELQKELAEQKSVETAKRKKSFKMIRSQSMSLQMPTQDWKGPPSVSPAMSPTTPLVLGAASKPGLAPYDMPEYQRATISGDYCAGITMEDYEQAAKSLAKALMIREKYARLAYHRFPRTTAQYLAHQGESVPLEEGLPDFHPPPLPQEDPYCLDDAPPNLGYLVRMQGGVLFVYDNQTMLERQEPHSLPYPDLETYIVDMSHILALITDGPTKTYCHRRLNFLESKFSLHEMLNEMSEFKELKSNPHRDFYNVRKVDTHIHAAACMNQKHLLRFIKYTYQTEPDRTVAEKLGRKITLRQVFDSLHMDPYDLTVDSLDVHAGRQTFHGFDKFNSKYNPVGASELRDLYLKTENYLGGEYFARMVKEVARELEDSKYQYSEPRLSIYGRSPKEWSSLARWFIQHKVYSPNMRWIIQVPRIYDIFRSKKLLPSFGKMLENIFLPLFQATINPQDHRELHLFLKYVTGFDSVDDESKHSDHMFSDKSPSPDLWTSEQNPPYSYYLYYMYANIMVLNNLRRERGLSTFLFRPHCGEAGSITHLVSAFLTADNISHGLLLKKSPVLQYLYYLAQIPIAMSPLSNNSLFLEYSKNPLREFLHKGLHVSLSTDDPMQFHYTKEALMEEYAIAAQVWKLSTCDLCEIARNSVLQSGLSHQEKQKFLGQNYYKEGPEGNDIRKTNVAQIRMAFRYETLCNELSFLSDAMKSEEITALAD

[2] = target: T1, full-length AMP deaminase 3 (AMPD3), rat, 90 kDa (rat (endogenous in NRCMs, H9c2 cells and rat heart)); test: co-IP; anti-AMPD3 immunoprecipitation of lysate of H9c2 cardiomyoblasts with or without E1α knocked down (siRNA); immunoblotting

Q: Which binding [1] does the source give for “E2 subunit of branched-chain α-keto acid dehydrogenase (BCKDH), rat” here?
A: The binding was “binds”.

Q: What about the binding [2] of the same substance?
A: Its binding is “binds”.
